Results reported in PMC9975585.
These are yes or no findings as the source states them, for the method shown. Some entries that bind do so weakly or less than the wild type.

Biological target: CH25H bait of the yeast two-hybrid assay (pBT3-STE-CH25H) (chicken)
Experiment: two-hybrid; split-ubiquitin vectors: bait pBT3-STE-CH25H, prey pPR3-N-CHMP4B, co-transformed into yeast strain NMY51; ten-fold serial dilutions on SD lacking Leu and Trp and on SD lacking Ade, His, Leu and Trp with 30 mm 3AT; 5 d

binding: binds
B1: CHMP4B prey of the yeast two-hybrid assay (pPR3-N-CHMP4B) (protein, UniProt Q5ZHP5 1-227)
chain: MSGILGKLFGAGAGGKGAGKGPSPQEAIQRLRDTEEMLSKKQEFLEKKIEQELAAARKHGTKNKRAALQALKRKKRYEKQLAQIDGTLSTIEFQREALENANTNTEVLKNMGFAAKAMKAAHDNMDIDKVDELMQDIAEQQELADEISTAISKPVGFGEEFDEDELMAELEELEQEELDKNLLEISGPETVPLPNVPSISIPSKPAKKKEEEEDDDMKELEAWAGNM
